No constants are given. Whether binding was seen depends on the method and setting. Binding seen in cells or lysates may run through a third protein. Binding can be weak; no strength is given. Where a sequence is shown, tags or fusion partners need not be part of it.
How the values were obtained:
[1] = target: IP3R1-TM-GFP (GFP-tagged IP3R1 truncation mutant containing the transmembrane domain) (human (cDNA from HeLa cells)) (UniProt Q14643); assay: co-IP; HEK293T cells co-transfected with 3xFlag- and GFP-tagged constructs; IP with anti-GFP or anti-Flag antibody and Protein A/G Sepharose, 4 °C overnight; 25 mM HEPES, 150 mM NaCl, 1% Triton X-100, 1 mM DTT, 2 mM CaCl2, 1 mM MgCl2, pH 7.4; western blot
[2] = target: IP3R1-TM-GFP (GFP-tagged IP3R1 truncation mutant containing the transmembrane domain) (human (cDNA from HeLa cells)) (UniProt Q14643); assay: co-IP; in vitro immunoprecipitation from lysates of transfected HEK293T cells in buffer without CaCl2 (25 mM HEPES, 150 mM NaCl, 1% Triton X-100, 1 mM DTT, 1 mM MgCl2, pH 7.4); free Ca2+ adjusted with CaCl2 from 400 μM to 0 μM; antibody at 4 °C overnight

The chains behind the UniProt entries cited, without tags or fusion partners. Where a name states a change or a piece, a line headed by the entry shows the natural chain unless it says otherwise.
UniProt Q14643: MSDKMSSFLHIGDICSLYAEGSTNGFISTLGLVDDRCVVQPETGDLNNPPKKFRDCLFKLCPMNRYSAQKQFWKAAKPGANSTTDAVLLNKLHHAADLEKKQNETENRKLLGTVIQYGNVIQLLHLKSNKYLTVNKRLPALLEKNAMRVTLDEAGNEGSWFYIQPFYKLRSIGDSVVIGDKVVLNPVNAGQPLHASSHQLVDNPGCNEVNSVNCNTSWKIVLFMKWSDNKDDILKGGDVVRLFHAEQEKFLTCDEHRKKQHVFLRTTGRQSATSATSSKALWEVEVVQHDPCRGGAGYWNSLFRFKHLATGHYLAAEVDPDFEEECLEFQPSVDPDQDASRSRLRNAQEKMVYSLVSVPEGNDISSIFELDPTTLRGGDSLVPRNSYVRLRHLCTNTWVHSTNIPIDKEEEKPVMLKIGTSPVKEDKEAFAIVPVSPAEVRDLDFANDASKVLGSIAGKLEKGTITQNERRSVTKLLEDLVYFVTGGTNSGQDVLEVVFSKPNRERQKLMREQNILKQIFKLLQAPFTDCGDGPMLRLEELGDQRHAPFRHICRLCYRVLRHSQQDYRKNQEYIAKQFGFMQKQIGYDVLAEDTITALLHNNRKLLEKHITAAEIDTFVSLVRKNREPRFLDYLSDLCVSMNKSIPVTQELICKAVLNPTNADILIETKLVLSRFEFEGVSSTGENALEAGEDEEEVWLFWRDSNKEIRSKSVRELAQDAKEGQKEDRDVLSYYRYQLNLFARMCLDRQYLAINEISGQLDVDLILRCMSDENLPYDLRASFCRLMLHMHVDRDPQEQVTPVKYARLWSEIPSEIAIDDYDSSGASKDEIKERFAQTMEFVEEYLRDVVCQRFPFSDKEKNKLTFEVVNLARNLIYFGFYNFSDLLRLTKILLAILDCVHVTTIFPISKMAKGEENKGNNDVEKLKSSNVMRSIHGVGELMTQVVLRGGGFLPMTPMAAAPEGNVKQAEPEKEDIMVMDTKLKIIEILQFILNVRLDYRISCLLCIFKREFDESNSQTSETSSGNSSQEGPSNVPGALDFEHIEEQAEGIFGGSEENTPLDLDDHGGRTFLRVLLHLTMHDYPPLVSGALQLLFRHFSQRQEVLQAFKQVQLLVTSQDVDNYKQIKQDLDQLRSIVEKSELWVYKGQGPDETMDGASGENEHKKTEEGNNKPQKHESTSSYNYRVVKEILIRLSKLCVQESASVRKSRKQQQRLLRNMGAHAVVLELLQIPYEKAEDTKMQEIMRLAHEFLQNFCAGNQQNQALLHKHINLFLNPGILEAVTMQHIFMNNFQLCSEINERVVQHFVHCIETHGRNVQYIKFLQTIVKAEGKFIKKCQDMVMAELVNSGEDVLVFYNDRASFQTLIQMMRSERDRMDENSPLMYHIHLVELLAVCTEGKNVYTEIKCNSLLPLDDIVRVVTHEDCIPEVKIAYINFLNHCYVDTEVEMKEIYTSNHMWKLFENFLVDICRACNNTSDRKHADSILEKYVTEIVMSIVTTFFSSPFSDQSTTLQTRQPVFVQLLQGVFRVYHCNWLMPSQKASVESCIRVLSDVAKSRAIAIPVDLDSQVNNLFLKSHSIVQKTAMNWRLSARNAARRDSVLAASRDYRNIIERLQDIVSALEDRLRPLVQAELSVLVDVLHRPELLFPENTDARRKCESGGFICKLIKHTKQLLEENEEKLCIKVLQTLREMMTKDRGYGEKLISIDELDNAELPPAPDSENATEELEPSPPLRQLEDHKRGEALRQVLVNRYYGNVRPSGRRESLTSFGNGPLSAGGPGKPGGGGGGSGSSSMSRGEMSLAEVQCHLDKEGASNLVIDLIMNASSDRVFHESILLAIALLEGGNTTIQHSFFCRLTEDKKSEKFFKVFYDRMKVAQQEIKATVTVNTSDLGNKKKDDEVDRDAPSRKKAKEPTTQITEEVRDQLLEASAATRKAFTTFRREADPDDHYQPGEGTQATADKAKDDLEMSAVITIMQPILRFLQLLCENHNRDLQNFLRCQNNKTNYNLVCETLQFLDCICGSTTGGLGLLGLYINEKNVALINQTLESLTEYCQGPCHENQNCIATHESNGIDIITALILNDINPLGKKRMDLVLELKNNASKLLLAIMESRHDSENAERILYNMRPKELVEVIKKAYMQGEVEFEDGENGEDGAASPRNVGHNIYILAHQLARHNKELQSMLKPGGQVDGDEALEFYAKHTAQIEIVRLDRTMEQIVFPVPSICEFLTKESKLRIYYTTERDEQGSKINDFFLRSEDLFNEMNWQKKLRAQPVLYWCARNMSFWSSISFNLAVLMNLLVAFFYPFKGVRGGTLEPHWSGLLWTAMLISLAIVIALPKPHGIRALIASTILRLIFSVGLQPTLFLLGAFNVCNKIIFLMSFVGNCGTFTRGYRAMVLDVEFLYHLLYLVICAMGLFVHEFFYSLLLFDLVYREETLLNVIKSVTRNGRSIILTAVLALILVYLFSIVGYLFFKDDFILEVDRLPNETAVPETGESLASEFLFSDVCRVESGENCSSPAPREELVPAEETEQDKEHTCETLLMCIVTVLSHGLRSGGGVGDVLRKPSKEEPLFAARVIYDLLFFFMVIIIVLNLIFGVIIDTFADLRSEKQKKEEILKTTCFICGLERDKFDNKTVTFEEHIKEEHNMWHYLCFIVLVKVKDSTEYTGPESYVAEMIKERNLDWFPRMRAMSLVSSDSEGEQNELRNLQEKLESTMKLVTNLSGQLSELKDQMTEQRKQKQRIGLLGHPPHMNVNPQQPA

binding [1]: binds
binding [2]: binds
B1: 3 × Flag-RCN1 (reticulocalbin 1) (protein, UniProt Q15293 30-331)
chain: KPTVRKERVVRPDSELGERPPEDNQSFQYDHEAFLGKEDSKTFDQLTPDESKERLGKIVDRIDNDGDGFVTTEELKTWIKRVQKRYIFDNVAKVWKDYDRDKDDKISWEEYKQATYGYYLGNPAEFHDSSDHHTFKKMLPRDERRFKAADLNGDLTATREEFTAFLHPEEFEHMKEIVVLETLEDIDKNGDGFVDQDEYIADMFSHEENGPEPDWVLSEREQFNEFRDLNKDGKLDKDEIRHWILPQDYDHAQAEARHLVYESDKNKDEKLTKEEILENWNMFVGSQATNYGEDLTKNHDEL

Reference: paper PMC5533947
